# Data published in the supplement of paper PMC7666118.
# By UniProt entry, the sequences of proteins in these tests, tags left out. Where a name states a change or a piece, a line headed by the entry shows the natural chain unless it says otherwise.
# UniProt Q8WWV3: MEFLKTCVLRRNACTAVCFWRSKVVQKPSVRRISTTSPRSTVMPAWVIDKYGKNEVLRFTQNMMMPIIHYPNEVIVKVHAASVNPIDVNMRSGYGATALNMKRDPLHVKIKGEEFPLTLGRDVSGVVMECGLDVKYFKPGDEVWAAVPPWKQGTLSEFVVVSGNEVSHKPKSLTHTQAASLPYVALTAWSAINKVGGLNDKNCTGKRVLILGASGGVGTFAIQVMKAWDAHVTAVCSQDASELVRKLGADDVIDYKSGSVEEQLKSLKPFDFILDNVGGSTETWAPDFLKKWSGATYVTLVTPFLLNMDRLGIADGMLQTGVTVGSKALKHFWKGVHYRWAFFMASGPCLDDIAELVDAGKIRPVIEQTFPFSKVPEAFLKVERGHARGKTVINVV
# UniProt P55735: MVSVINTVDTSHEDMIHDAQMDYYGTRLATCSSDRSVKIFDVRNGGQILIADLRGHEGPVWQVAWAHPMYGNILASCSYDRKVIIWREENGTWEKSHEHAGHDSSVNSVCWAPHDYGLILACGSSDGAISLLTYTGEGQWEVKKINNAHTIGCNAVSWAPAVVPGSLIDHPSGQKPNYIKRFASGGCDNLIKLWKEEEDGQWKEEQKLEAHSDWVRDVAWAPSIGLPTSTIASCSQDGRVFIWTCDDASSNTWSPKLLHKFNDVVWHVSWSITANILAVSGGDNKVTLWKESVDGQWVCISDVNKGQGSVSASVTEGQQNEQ
# UniProt Q6SPF0: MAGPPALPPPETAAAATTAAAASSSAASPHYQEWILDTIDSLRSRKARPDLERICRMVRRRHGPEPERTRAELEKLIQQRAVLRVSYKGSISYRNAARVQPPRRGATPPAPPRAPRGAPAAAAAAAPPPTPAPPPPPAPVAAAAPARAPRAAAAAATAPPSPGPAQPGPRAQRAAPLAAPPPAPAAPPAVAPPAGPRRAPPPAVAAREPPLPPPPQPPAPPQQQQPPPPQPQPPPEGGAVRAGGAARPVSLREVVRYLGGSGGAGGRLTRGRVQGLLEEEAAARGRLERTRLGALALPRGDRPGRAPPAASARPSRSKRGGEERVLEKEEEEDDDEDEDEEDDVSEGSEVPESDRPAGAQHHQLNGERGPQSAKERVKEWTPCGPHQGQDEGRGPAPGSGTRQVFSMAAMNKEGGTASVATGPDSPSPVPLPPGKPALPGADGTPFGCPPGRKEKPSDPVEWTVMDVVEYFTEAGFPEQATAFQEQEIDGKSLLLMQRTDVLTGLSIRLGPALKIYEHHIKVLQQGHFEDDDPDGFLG
# UniProt Q9BY50: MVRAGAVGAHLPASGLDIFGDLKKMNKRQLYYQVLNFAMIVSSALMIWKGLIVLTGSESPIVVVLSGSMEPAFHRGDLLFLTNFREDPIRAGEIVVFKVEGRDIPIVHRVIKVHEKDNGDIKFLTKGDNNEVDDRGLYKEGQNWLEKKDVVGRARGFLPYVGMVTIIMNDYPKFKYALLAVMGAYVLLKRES
# UniProt O43819: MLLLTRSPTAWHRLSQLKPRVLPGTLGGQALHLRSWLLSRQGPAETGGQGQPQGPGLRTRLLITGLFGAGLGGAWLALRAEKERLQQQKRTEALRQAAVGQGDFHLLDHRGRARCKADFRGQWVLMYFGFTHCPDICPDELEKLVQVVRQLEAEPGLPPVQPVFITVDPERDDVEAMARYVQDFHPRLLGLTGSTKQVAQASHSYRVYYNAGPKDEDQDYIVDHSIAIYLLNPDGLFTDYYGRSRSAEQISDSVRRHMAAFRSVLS
# UniProt Q96FV2: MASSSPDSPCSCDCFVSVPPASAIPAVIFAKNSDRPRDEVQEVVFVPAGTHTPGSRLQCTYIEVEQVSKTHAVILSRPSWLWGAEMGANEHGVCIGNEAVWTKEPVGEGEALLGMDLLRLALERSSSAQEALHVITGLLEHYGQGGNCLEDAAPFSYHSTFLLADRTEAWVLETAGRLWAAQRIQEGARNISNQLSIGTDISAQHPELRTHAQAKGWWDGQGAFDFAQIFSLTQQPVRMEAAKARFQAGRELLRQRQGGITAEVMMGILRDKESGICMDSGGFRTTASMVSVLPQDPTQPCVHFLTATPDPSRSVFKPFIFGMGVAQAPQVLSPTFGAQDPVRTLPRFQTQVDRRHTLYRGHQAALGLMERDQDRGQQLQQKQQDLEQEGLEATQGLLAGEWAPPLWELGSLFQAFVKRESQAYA
# UniProt P61619, whole entry: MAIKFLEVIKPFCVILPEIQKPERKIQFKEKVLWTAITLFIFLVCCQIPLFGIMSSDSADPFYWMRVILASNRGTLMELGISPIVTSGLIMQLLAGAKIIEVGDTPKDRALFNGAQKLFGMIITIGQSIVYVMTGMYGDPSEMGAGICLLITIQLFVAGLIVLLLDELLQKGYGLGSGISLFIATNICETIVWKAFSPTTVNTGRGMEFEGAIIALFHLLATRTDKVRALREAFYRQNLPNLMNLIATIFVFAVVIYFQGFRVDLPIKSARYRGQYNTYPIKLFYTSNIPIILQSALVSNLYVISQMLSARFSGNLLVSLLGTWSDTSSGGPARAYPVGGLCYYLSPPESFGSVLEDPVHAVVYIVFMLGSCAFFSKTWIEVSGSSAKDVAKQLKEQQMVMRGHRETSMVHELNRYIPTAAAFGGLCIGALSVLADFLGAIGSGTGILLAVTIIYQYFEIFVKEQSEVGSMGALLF
# UniProt P31949: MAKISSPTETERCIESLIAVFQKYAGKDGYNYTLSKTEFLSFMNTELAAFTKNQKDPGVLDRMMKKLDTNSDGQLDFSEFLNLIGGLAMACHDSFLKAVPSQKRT
# UniProt Q01196, whole entry: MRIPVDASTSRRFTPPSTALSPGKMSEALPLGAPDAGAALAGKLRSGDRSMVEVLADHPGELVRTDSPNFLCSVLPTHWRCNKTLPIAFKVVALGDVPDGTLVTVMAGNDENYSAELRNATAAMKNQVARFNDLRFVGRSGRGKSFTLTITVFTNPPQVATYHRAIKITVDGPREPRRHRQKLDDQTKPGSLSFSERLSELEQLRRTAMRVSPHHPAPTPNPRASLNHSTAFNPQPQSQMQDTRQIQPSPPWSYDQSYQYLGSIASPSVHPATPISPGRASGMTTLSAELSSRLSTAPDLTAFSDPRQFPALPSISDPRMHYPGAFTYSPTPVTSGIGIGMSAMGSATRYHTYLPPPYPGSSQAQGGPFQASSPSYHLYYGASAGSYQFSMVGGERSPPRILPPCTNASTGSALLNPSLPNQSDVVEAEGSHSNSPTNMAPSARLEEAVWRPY
# UniProt Q9UGP8: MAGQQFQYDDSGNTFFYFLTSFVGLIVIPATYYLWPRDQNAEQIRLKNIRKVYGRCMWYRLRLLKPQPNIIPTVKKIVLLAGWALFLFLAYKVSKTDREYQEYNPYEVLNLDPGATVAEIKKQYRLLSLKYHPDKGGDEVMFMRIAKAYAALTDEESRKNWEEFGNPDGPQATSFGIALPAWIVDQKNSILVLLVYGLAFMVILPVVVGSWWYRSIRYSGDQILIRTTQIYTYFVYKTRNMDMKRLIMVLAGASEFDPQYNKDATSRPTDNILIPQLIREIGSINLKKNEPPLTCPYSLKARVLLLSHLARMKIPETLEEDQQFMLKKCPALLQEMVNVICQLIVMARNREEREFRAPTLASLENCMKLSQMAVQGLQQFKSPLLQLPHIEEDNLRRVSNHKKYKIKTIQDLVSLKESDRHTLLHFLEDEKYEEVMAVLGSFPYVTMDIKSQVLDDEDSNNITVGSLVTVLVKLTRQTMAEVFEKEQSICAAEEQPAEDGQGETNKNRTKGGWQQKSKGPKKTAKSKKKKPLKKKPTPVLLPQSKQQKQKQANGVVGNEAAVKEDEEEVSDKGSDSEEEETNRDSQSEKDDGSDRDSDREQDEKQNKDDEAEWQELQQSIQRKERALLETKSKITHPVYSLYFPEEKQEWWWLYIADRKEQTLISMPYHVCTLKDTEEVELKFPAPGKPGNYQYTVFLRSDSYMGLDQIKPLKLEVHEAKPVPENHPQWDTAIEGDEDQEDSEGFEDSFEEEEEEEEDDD
# UniProt O75582, whole entry, looked up: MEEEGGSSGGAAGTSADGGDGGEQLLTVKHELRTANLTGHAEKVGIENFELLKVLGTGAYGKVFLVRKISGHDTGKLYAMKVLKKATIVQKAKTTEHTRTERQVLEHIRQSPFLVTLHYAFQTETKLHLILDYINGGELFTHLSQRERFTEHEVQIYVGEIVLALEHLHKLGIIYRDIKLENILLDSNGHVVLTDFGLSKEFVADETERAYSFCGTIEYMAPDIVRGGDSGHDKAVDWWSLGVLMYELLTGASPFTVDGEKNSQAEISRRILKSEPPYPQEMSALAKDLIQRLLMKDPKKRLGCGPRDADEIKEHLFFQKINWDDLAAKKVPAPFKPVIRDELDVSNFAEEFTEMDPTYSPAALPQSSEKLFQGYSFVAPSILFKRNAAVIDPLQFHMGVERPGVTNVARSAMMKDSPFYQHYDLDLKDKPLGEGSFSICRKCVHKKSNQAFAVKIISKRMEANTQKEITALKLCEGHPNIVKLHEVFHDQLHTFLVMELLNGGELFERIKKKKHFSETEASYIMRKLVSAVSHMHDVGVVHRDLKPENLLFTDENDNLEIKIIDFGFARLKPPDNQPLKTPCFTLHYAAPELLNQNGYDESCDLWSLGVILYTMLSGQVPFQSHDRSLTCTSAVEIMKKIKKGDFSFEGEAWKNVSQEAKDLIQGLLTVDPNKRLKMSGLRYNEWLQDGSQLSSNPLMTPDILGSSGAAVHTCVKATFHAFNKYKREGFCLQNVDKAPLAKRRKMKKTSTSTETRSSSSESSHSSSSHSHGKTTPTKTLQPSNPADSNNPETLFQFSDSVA
# UniProt Q13950, whole entry: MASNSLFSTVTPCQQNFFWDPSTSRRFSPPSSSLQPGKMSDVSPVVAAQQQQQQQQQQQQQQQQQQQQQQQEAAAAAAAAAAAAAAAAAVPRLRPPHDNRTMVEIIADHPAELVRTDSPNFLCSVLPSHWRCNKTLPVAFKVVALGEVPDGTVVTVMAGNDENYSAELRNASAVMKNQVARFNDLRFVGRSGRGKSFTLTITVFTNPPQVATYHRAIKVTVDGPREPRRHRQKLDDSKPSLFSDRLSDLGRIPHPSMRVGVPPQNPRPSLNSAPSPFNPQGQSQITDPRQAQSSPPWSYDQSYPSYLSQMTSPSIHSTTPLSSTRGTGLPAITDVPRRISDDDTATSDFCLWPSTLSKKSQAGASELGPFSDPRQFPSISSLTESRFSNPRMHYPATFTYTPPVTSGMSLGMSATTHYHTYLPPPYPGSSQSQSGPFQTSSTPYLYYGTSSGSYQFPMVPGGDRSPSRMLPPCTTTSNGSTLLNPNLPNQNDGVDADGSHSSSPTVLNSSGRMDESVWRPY
# UniProt Q6UX04: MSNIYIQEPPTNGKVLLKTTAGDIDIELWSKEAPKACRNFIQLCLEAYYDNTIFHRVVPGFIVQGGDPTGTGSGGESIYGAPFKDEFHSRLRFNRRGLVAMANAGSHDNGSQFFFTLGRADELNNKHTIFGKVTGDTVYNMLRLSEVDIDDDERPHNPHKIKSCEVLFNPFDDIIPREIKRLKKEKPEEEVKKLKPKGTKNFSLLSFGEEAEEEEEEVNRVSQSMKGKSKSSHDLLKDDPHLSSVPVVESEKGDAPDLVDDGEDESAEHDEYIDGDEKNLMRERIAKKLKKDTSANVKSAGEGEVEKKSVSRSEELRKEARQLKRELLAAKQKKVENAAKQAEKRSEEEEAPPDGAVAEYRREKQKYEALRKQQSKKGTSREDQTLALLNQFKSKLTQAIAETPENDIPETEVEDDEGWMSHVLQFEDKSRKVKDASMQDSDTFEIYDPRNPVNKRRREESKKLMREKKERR
# UniProt Q96NL6: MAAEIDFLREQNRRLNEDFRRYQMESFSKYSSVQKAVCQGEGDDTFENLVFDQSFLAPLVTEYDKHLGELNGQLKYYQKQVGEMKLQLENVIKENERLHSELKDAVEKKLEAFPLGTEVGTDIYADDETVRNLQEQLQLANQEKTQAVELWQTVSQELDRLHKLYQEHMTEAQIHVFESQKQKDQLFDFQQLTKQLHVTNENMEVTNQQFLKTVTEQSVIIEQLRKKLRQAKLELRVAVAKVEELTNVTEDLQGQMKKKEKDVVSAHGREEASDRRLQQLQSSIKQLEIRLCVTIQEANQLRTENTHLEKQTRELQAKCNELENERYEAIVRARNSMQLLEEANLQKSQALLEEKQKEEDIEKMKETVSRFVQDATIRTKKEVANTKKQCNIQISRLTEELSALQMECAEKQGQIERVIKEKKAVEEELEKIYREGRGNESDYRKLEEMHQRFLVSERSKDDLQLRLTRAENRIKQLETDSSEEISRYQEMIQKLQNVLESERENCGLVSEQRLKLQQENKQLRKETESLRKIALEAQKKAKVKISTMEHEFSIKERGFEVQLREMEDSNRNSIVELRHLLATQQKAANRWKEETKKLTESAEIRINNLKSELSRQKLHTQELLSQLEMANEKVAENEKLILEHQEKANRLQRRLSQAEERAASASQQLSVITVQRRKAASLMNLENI
# UniProt P60602: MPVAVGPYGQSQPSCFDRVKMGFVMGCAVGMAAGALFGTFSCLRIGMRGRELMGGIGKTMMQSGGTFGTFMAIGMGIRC
# The other results are listed elsewhere or left out.
# Compound: COc1ccc(Cn2ccc3cc(C)c(C(=O)NO)cc32)cc1
# Assay: dose-dependent thermal stabilisation call (2D-TPP, DLPTP, 10% FDR) (binary (1 = stabilised)); higher = stabilised by the compound
# Conditions: system: HL-60 intact cells; concentration range 0.04-10 µM
# Method: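 2D thermal proteome profiling in intact HL-60 cells treated with BRD-3811 (0, 0.04, 0.29, 2, 10 uM) for 90 min at 37 C, then heated 3 min at one of 12 temperatures (42-63.9 C). Soluble protein was quantified by TMT10 MS. The value is the DLPTP call of the paper: dose-dependent thermal stabilisation over all temperatures at 10% FDR (F-test of a dose-response against a flat model); one experiment, one call per tested protein.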
row,Target,dose-dependent thermal stabilisation call
1,SEC24B (UniProt O95487),inactive: 0
2,SAFB (UniProt Q15424),inactive: 0
3,RTN4IP1 (UniProt Q8WWV3),inactive: 0
4,RPS28 (UniProt P62857),inactive: 0
5,RP5-1022P6 2,inactive: 0
6,RP5-1000E10 4,inactive: 0
7,SEC13 (UniProt P55735),inactive: 0
8,SAMD1 (UniProt Q6SPF0),inactive: 0
9,SEC11C (UniProt Q9BY50),inactive: 0
10,RPL31 (UniProt P62899),inactive: 0
11,SCO2 (UniProt O43819),inactive: 0
12,SCAMP1 (UniProt O15126),inactive: 0
13,RUNDC1 (UniProt Q96C34),inactive: 0
14,SCRN2 (UniProt Q96FV2),inactive: 0
15,SEC61A1 (UniProt P61619),inactive: 0
16,S100A11 (UniProt P31949),active: 1
17,RUNX1 (UniProt Q01196),inactive: 0
18,RPL12 (UniProt P30050),inactive: 0
19,RPS6 (UniProt P62753),inactive: 0
20,SEC63 (UniProt Q9UGP8),inactive: 0

row,Target,dose-dependent thermal stabilisation call
1,RPA2 (UniProt P15927),inactive: 0
2,SCPEP1 (UniProt Q9HB40),inactive: 0
3,SCP2 (UniProt P22307),inactive: 0
4,RPS16 (UniProt P62249),inactive: 0
5,RPS6KA5 (UniProt O75582),inactive: 0
6,RPL10 (UniProt P27635),inactive: 0
7,RPL7 (UniProt P18124),inactive: 0
8,SACS (UniProt Q9NZJ4),inactive: 0
9,ROGDI (UniProt Q9GZN7),inactive: 0
10,RUNX2 (UniProt Q13950),inactive: 0
11,SDCCAG10 (UniProt Q6UX04),inactive: 0
12,RPS12 (UniProt P25398),inactive: 0
13,S100A9 (UniProt P06702),inactive: 0
14,RPN1 (UniProt P04843),inactive: 0
15,SEPT11 (UniProt Q9NVA2),inactive: 0
16,SDCBP (UniProt O00560),inactive: 0
17,ROD1 (UniProt O95758),inactive: 0
18,SCLT1 (UniProt Q96NL6),inactive: 0
19,ROMO1 (UniProt P60602),inactive: 0
20,RPS13 (UniProt P62277),inactive: 0

# Shown tab-delimited: entries from further up
row	Target	dose-dependent thermal stabilisation call
8	SACS (UniProt Q9NZJ4)	inactive: 0
16	SDCBP (UniProt O00560)	inactive: 0
19	ROMO1 (UniProt P60602)	inactive: 0
